Values of other authors in patent US20120122966A1, “USE OF ORGANIC DYES AS ANALGESIC AGENTS” (priority 2009, published 2012).

Conditions: in vivo; cited from earlier work

## CN1CC[C@]23c4c5ccc(O)c4O[C@H]2[C@@H](O)C=C[C@H]3[C@H]1C5 [morphine]
  Acute toxicity LD50: 170 mg/kg
